Measurements reported in publication PMC11343034, “CDCA7 is an evolutionarily conserved hemimethylated DNA sensor in eukaryotes”.

Assays:
[1] = target: T1, hCDCA7 264-371 C339S (Homo sapiens) (UniProt Q9BWT1); assay: EMSA; details: with nucleosome present, which is preferred; 5mC at 15 of strand 2; Oligo EMSA: 20 mM Tris-HCl pH 7.5, 150 mM NaCl, 1 mM DTT, 0.05% NP-40, 10% glycerol, 4 C, 0.5 uM DNA; recombinant protein; residues 264-371; protein details: GST-SUMO removed
T1 sequence (looked up): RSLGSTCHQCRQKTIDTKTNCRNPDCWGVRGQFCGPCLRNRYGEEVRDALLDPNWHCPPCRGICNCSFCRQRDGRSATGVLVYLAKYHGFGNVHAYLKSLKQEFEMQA

[2] = target: T2, A. thaliana CDCA7 homolog (Arabidopsis thaliana) (UniProt Q0WPT6); assay: pull-down; details: boiled extract, protein translated in vitro, protein details: 35S-Met, label: 5' biotin on strand 2
T2 sequence (looked up, limits assumed): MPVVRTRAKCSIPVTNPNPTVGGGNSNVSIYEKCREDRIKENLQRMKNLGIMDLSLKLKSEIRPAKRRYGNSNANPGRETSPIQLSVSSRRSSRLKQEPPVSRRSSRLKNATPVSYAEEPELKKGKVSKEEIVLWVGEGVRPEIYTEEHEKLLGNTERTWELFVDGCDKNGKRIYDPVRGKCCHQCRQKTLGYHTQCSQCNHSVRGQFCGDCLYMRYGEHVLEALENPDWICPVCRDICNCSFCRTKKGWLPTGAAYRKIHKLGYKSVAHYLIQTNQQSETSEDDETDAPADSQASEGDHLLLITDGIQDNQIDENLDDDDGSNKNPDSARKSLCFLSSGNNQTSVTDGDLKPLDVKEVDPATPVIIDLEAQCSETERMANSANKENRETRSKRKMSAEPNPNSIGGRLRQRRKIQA

[3] = target: T3, C. gigas CDCA7 homolog (Crassostrea gigas) (UniProt A0A8W8IWK5); assay: pull-down; details: boiled extract, protein translated in vitro, protein details: 35S-Met, label: 5' biotin on strand 2
T3 sequence (looked up, limits assumed): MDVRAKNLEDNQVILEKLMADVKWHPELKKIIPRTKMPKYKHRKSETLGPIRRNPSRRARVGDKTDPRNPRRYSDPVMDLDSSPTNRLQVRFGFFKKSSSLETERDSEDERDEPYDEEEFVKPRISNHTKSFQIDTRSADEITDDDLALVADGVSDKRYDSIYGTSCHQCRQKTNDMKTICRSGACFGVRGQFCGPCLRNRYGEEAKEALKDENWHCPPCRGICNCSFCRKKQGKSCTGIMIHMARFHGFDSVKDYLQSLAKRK

[4] = target: T4, CDCA7L 322-454 (Homo sapiens) (UniProt Q96GN5); assay: pull-down; details: egg extract, protein translated in vitro, residues 322-454, protein details: 35S-Met, label: 5' biotin on strand 2
T4 sequence (looked up): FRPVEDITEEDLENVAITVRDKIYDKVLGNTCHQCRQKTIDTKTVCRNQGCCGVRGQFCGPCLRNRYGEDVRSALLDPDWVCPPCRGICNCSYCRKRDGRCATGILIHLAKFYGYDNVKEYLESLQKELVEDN

[5] = tested on: CDCA7e (endogenous, egg extract) (Xenopus laevis); assay: pull-down; details: protein in an extract, label: 5' biotin on strand 2
[6] = target: T5, HELLS (endogenous, egg extract) (Xenopus laevis) (UniProt Q4V835); assay: pull-down; details: protein in an extract, label: 5' biotin on strand 2
T5 sequence (looked up, limits assumed): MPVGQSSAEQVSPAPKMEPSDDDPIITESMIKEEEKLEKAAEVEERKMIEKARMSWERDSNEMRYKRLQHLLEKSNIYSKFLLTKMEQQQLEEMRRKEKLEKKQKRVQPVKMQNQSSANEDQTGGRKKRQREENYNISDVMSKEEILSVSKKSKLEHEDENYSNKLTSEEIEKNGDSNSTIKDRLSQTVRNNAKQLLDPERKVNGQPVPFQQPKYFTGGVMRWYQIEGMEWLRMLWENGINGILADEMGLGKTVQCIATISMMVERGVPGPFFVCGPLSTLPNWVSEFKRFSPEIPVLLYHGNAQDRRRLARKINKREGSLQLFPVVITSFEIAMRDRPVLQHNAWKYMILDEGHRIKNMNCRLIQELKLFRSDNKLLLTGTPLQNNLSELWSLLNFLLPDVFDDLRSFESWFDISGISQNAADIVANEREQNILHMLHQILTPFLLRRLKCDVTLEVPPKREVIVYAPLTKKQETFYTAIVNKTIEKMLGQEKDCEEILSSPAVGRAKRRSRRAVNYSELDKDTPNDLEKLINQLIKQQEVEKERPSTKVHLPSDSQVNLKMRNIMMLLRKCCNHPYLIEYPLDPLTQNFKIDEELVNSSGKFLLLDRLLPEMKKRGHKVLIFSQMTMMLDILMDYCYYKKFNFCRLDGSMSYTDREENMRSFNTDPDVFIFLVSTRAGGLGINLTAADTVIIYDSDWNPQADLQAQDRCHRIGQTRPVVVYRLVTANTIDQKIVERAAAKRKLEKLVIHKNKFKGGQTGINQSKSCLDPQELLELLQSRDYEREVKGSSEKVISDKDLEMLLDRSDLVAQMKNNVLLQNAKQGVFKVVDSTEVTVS

[7] = target: T6, N. vectensis CDCA7 homolog (Nematostella vectensis) (UniProt A7SQU1); assay: pull-down; details: boiled extract, protein translated in vitro, protein details: 35S-Met, label: 5' biotin on strand 2
T6 sequence (looked up, limits assumed): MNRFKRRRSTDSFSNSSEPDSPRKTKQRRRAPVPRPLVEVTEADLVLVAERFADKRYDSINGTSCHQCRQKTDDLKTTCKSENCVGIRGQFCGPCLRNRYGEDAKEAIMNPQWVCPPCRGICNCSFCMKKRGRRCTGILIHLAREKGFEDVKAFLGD

[8] = tested on: CDCA7e G252V, 35S-labeled (Xenopus laevis); assay: pull-down; details: no selective association; 5mC at CpG cytosines of strand 1; protein translated in vitro; protein details: 35S-Met; label: 5' biotin on strand 1
[9] = tested on: CDCA7e R232H, 35S-labeled (Xenopus laevis); assay: pull-down; details: no selective association; 5mC at CpG cytosines of strand 1; protein translated in vitro; protein details: 35S-Met; label: 5' biotin on strand 1
[10] = tested on: CDCA7e R262H, 35S-labeled (Xenopus laevis); assay: pull-down; details: no selective association; 5mC at CpG cytosines of strand 1; protein translated in vitro; protein details: 35S-Met; label: 5' biotin on strand 1
[11] = tested on: CDCA7e WT, 35S-labeled (Xenopus laevis); assay: pull-down; details: protein translated in vitro, protein details: 35S-Met, label: 5' biotin on strand 1
[12] = 5mC at 41,47,49,53 of strand 1 and 1,5,7,13 of strand 2

“ATCAGAATCCCGGTGCCGAGGCCGCTCAATTGGTCGTAGACAGCTCTAGCACCGCTTAAACGCACGTACGCGCTGTCCCCCGCGTTTTAACCGCCAAGGGGATTACTCCCTAGTCTCCAGGCACGTGTCCGATATATACATCGAT (double strand) [-58C free DNA]”: binds more weakly [1].
“GCGGGTGATGGACCCTATACGCGGCCGCCCTGGAGAATCCCGGTGCCGCGGCCG (double strand) [54-bp full-Me]”: binds more weakly ([2]; above un-Me, 5mC at 41,47,49,53 of strand 1 and 1,5,7,13 of strand 2); binds more weakly [3, 12]; binds more weakly [4, 12]. “GCGGGTGATGGACCCTATACGCGGCCGCCCTGGAGAATCCCGGTGCCGCGGCCG (double strand) [54-bp full-Me]”: binds more weakly [5, 12]; binds more weakly [6, 12]; binds more weakly [7, 12].
“GCGGGTGATGGACCCTATACGCGGCCGCCCTGGAGAATCCCGGTGCCGCGGCCG (double strand) [54-bp hemi-Me (F)]”: binds ([5]; 5mC at 41,47,49,53 of strand 1); binds ([6]; 5mC at 41,47,49,53 of strand 1).
“GCGGGTGATGGACCCTATACGCGGCCGCCCTGGAGAATCCCGGTGCCGCGGCCG (double strand) [54-bp hemi-Me (R)]”: binds ([5]; 5mC at 1,5,7,13 of strand 2); binds ([6]; 5mC at 1,5,7,13 of strand 2).
“GCGGGTGATGGACCCTATACGCGGCCGCCCTGGAGAATCCCGGTGCCGCGGCCG (double strand) [54-bp un-Me]”: binds more weakly [2]; binds more weakly [3]; binds more weakly [4]. “GCGGGTGATGGACCCTATACGCGGCCGCCCTGGAGAATCCCGGTGCCGCGGCCG (double strand) [54-bp un-Me]”: binds more weakly [5]; binds more weakly [6]; binds more weakly [7].
“TCGGGTTATGTGATGGACCCTATACGCGGGCGCCCTGGAGAATCCTGCAGCCGAGGCCGCTCAATTGGTCGTAGCAAGCTCTAGCACCGCTTAAACGCACGTACGCGCTGTCCCCCGCGTTTTAACCGCCAAGGGGATTACTCCCTAGTCTCCAGGCACGTGTCAGATATATACATCCTGTGCATGTATTGAACAGCGAC (double strand) [200-bp Widom 601 hemimethylated]”: binds more weakly [8]; binds more weakly [9]; binds more weakly [10]. “TCGGGTTATGTGATGGACCCTATACGCGGGCGCCCTGGAGAATCCTGCAGCCGAGGCCGCTCAATTGGTCGTAGCAAGCTCTAGCACCGCTTAAACGCACGTACGCGCTGTCCCCCGCGTTTTAACCGCCAAGGGGATTACTCCCTAGTCTCCAGGCACGTGTCAGATATATACATCCTGTGCATGTATTGAACAGCGAC (double strand) [200-bp Widom 601 hemimethylated]”: binds ([11]; 5mC at CpG cytosines of strand 1).
“TCGGGTTATGTGATGGACCCTATACGCGGGCGCCCTGGAGAATCCTGCAGCCGAGGCCGCTCAATTGGTCGTAGCAAGCTCTAGCACCGCTTAAACGCACGTACGCGCTGTCCCCCGCGTTTTAACCGCCAAGGGGATTACTCCCTAGTCTCCAGGCACGTGTCAGATATATACATCCTGTGCATGTATTGAACAGCGAC (double strand) [200-bp Widom 601 unmethylated]”: binds more weakly [11].

The comparison behind a weaker result is the experiment's own reference, which may not be listed here. For some of these results: Where a protein sequence is shown, tags need not be part of it. For some of these results: The exact form of at least one protein or probe is not confirmed. For some of these results: At least one verdict rests on a figure or table, not on a statement of the authors. For some of these results: Results from cells or extracts need not show a direct contact.
